PubChem BioAssay AID1224830, NIAID – 2016
Aim: 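Regulators of TLR4 signalling towards TNF-alpha in macrophage-like cells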 (primary screen). System: human THP-1 monocytic leukaemia cells, TNF dual-luciferase reporter clone, PMA-differentiated to macrophage-like cells. Knock-down reagent: siRNA pool against human genes, 50 nM. Timing: LPS for 4 h, given about 3 days after siRNA transfection. Challenge: bacterial LPS (TLR4 ligand), 10 ng/ml. Detection: 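TNF firefly reporter luminescence divided by renilla, normalised to the plate median, then turned into a robust z-score for each replicate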. Reading the numbers: TNF reporter robust z-score: higher = stronger TNF reporter response to LPS. Hit rule: 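a well is active when its z-score exceeds 2.8 or falls below -1.5; control wells carry no call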.
The deposit covers about 18,000 reagents; shown is a random part of them. In the full data, about 2,900 (16%) are marked active. 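Calls are made per well; low scores hint the gene aids the LPS response, high scores that it dampens it.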 Repeated entries: four replicate wells of each siRNA pool. Reagent sequences are not shown.

no.	Target gene	TNF reporter robust z-score	activity call
1	PAEP (GeneID 5047)	0.41	inactive
2	PAEP (GeneID 5047)	-0.17	inactive
3	PAEP (GeneID 5047)	1.51	inactive
4	PAEP (GeneID 5047)	-0.49	inactive
5	ALG6 (GeneID 29929)	0.44	inactive
6	ALG6 (GeneID 29929)	-0.08	inactive
7	ALG6 (GeneID 29929)	0.56	inactive
8	ALG6 (GeneID 29929)	1.71	inactive
9	TTC14 (GeneID 151613)	-0.41	inactive
10	TTC14 (GeneID 151613)	-0.87	inactive
11	TTC14 (GeneID 151613)	-0.8	inactive
12	TTC14 (GeneID 151613)	-0.63	inactive
13	ANXA8L1 (GeneID 728113)	-1.22	inactive
14	ANXA8L1 (GeneID 728113)	0.58	inactive
15	ANXA8L1 (GeneID 728113)	-1.24	inactive
16	ANXA8L1 (GeneID 728113)	-1.07	inactive
17	FGF4 (GeneID 2249)	0.18	inactive
18	FGF4 (GeneID 2249)	0	inactive
19	FGF4 (GeneID 2249)	-0.05	inactive
20	FGF4 (GeneID 2249)	0.37	inactive
21	ORAI1 (GeneID 84876)	-0.74	inactive
22	ORAI1 (GeneID 84876)	-1.17	inactive
23	ORAI1 (GeneID 84876)	-0.86	inactive
24	ORAI1 (GeneID 84876)	0.14	inactive
25	PSME1 (GeneID 5720)	1.04	inactive
26	PSME1 (GeneID 5720)	1.82	inactive
27	PSME1 (GeneID 5720)	-0.81	inactive
28	PSME1 (GeneID 5720)	-0.76	inactive
29	DENND2A (GeneID 27147)	0.35	inactive
30	DENND2A (GeneID 27147)	0.56	inactive
31	DENND2A (GeneID 27147)	1.13	inactive
32	DENND2A (GeneID 27147)	0.07	inactive
33	RMI1 (GeneID 80010)	-0.48	inactive
34	RMI1 (GeneID 80010)	-0.13	inactive
35	RMI1 (GeneID 80010)	-1.11	inactive
36	RMI1 (GeneID 80010)	0.83	inactive
37	GPR142 (GeneID 350383)	-1.78	active
38	GPR142 (GeneID 350383)	-1.4	inactive
39	GPR142 (GeneID 350383)	-1.05	inactive
40	GPR142 (GeneID 350383)	-1.32	inactive
41	PRR34 (GeneID 55267)	-0.88	inactive
42	PRR34 (GeneID 55267)	-0.05	inactive
43	PRR34 (GeneID 55267)	-0.79	inactive
44	PRR34 (GeneID 55267)	-1.33	inactive
45	MTRFR (GeneID 91574)	-0.35	inactive
46	MTRFR (GeneID 91574)	-0.42	inactive
47	MTRFR (GeneID 91574)	0.71	inactive
48	MTRFR (GeneID 91574)	0.3	inactive
